Data reported in the supplement of paper PMC11732987, “Enantioselective OTUD7B fragment discovery through chemoproteomics screening and high-throughput optimisation” (Communications Chemistry, 2025).
Some of the results follow. The data scatter; read single values as rough.

The chains behind the UniProt entries cited, without tags or fusion partners. Where a name states a change or a piece, a line headed by the entry shows the natural chain unless it says otherwise.
UniProt Q96FZ2: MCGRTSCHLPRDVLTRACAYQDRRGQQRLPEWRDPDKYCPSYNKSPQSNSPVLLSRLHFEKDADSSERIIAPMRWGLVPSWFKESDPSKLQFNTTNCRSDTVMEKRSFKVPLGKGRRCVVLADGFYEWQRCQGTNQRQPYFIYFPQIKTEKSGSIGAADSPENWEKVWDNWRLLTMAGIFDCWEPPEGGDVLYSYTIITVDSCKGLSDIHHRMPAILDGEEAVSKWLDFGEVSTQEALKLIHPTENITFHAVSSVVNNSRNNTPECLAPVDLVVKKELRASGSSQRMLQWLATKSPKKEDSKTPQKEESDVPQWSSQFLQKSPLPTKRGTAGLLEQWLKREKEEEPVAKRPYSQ
UniProt Q9BX10: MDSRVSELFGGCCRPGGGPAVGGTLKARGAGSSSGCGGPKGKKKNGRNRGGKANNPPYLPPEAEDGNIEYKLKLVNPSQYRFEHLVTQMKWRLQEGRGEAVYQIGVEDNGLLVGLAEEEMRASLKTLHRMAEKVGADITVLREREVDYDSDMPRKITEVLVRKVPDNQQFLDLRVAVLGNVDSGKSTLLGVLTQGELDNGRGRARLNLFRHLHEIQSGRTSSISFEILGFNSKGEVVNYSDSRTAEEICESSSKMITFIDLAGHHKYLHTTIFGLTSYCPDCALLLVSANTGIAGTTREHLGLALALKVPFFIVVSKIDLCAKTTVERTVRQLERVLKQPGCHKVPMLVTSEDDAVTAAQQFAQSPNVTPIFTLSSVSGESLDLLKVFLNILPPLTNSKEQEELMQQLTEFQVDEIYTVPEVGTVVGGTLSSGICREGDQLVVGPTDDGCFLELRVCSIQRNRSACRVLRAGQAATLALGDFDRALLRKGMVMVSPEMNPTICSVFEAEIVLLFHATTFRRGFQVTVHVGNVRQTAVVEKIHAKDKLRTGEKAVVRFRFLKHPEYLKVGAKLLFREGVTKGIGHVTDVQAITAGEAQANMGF
UniProt Q7Z4Q2: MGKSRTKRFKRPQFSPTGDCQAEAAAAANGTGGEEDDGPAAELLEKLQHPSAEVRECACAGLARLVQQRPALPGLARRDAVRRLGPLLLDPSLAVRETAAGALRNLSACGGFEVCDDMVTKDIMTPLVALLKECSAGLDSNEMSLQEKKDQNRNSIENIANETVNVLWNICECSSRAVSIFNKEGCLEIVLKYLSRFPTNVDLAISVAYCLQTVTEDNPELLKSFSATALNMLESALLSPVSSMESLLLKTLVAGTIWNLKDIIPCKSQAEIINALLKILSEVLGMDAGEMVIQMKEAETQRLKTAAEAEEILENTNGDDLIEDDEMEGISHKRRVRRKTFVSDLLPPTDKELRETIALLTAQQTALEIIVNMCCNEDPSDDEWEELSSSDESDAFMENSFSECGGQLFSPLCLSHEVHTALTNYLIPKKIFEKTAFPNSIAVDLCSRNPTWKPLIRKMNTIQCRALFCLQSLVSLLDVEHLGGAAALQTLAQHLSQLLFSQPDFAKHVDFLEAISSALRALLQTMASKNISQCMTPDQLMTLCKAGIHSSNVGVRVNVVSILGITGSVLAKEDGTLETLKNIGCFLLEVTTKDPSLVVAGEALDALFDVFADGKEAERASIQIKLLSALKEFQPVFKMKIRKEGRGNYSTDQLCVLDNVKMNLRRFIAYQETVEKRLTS
UniProt Q9Y5Q9: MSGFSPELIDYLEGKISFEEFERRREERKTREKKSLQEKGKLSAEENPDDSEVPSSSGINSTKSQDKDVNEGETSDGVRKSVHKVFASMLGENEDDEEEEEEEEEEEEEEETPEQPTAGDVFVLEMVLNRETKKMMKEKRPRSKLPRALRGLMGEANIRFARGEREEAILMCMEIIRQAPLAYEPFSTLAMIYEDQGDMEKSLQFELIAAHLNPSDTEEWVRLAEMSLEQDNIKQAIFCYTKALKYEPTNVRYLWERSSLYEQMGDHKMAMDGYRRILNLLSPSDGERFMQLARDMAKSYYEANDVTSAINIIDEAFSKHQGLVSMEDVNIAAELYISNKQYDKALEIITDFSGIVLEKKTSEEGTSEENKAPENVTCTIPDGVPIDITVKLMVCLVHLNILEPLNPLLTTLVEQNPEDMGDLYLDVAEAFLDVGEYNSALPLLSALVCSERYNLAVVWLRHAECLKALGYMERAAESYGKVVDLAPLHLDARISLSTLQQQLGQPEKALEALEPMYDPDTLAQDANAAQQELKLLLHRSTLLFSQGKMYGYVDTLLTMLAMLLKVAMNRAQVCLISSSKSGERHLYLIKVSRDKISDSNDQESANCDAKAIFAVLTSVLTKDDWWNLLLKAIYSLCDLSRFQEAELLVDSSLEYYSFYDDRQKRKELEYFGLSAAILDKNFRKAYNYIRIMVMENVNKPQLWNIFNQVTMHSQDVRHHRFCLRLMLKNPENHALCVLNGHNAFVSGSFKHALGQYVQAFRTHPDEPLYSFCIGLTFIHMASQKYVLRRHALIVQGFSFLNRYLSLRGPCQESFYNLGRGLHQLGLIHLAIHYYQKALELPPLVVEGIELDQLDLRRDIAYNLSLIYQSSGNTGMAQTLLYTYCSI
UniProt Q9NRZ9: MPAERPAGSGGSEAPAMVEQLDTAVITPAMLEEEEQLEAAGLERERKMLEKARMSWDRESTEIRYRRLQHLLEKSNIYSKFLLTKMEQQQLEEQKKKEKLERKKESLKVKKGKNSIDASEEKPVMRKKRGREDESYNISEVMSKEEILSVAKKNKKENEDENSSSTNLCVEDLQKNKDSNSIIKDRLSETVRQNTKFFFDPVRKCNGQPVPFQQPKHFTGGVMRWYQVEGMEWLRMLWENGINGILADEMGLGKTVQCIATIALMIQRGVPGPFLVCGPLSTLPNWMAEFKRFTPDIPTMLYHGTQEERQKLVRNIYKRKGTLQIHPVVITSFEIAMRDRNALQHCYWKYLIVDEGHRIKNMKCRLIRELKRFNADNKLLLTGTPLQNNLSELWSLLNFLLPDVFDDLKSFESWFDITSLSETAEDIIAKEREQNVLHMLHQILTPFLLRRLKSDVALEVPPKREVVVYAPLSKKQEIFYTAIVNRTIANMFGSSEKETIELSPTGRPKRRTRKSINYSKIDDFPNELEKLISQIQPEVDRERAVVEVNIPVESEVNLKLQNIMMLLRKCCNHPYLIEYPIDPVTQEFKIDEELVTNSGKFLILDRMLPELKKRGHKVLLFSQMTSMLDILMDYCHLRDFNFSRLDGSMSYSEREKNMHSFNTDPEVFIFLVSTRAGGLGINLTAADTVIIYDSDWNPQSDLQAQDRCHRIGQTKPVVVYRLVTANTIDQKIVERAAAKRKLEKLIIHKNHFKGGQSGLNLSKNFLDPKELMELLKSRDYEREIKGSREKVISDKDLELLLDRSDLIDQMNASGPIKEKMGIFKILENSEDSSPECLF
UniProt O75330: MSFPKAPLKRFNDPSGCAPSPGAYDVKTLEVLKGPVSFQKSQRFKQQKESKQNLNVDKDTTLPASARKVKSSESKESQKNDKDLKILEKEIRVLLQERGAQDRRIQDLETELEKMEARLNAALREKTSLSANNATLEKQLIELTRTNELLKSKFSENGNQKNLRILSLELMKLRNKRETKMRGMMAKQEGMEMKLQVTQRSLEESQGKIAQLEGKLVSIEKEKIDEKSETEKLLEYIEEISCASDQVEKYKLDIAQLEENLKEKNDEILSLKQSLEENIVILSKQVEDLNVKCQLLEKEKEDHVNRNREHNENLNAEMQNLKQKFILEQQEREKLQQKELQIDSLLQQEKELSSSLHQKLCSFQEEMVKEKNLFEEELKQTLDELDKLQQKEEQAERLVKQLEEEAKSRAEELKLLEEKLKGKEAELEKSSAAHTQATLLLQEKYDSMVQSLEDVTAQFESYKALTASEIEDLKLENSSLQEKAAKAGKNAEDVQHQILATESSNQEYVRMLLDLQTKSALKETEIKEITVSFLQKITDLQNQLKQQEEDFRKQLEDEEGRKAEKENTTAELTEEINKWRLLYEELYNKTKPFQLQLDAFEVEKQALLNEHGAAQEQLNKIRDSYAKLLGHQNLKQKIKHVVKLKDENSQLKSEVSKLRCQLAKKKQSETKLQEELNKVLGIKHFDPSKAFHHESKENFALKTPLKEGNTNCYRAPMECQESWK
UniProt Q4G148: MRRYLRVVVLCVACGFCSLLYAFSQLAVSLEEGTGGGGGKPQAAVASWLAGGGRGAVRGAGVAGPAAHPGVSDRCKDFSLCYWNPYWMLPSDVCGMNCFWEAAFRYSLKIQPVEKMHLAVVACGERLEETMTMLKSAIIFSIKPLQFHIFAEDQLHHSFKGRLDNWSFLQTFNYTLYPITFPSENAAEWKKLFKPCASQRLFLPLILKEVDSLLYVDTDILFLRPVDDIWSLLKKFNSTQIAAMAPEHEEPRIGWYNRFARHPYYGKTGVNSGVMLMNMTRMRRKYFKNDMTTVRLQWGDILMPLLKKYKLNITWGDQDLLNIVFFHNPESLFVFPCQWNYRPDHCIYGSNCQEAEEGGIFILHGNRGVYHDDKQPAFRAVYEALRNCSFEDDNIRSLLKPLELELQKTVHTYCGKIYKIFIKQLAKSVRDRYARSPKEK
UniProt Q9P2D3: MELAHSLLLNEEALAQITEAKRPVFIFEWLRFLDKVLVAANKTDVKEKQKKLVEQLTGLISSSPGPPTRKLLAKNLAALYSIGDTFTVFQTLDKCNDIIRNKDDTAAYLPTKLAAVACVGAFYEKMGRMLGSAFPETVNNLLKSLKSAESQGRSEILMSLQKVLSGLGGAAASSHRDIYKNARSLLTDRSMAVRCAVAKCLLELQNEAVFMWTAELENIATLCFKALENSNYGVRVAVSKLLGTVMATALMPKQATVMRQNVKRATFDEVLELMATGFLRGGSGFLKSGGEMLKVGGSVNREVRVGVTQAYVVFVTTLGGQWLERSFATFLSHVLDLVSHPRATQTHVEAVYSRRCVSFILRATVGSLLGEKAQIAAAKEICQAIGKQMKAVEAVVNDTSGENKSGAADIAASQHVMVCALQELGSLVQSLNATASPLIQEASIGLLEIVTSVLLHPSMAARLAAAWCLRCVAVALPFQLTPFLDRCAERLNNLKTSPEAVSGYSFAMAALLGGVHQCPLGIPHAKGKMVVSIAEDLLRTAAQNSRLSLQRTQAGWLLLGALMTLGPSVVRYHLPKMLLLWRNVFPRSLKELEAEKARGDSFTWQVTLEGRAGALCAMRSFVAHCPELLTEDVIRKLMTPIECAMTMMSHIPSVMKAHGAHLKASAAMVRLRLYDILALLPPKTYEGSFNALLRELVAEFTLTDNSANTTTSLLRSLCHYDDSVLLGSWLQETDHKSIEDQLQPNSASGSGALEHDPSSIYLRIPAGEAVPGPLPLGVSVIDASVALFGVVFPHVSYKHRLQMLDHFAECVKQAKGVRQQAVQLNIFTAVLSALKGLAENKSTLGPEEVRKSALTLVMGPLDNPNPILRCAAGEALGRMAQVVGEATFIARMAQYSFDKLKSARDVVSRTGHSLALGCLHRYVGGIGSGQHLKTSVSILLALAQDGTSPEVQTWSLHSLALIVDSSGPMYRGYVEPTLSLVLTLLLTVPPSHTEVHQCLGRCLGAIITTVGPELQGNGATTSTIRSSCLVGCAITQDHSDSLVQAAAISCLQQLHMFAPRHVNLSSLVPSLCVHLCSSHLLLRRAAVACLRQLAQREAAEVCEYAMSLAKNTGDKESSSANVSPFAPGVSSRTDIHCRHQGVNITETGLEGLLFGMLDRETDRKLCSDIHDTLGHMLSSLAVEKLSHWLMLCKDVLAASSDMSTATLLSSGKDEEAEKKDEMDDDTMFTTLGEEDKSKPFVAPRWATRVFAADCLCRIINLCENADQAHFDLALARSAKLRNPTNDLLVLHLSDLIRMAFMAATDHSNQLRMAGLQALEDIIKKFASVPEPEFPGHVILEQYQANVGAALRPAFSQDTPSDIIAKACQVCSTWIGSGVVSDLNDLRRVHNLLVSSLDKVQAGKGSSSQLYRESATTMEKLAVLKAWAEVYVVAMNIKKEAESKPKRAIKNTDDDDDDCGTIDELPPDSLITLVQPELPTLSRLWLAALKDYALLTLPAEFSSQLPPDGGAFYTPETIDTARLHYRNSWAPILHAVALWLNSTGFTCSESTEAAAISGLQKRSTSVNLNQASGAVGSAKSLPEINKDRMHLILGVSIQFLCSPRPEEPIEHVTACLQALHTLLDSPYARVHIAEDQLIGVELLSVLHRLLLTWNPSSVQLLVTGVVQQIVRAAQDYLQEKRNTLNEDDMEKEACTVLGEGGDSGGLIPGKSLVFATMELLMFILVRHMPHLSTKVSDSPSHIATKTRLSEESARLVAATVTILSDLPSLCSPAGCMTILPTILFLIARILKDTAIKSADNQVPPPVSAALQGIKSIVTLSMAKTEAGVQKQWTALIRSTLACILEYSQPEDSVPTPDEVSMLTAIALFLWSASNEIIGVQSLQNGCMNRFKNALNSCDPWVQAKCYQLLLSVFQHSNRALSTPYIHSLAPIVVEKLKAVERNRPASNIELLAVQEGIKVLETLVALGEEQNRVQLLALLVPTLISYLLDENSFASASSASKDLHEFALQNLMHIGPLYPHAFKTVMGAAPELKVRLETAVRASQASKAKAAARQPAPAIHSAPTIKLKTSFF

Each target was assayed with ClCC(=O)N[C@H]1CCCc2ccccc12 (assay: log2 mean competition ratio of IA-DTB cysteine labelling (DMSO/compound) (log2 ratio); higher = stronger cysteine engagement by compound). Details: 50 µM; treatment time: 4 h; cell line lysate: HEK293T.
Method: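 IA-DTB competitive cysteine chemoproteomics in HEK293T RIPA lysate. Lysates were treated with compound 29 or 30 at 50 or 200 µM for 4 h, then IA-DTB (500 µM, 1 h), trypsin-digested, NeutrAvidin-enriched and analysed by diaPASEF. Competition ratio = intensity DMSO / intensity compound (n=4 treated, n=64 DMSO); binding: mean log2 CR ≥ 1 and p ≤ 0.05 plus QC filters. Target is the cysteine site.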

| Target | log2 mean competition ratio |
| --- | --- |
| HMCES C18 (UniProt Q96FZ2) | -0.0318 |
| HK1 C886 (UniProt P19367) | -0.00334 |
| HLA-E C185 | 0.0165 |
| HERC2 C349 (UniProt O95714) | 0.188 |
| HOXB8 C215 | -0.0859 |
| GTPBP2 C36 (UniProt Q9BX10) | 0.3 |
| GSTM3 C39 (UniProt P21266) | -0.0923 |
| HEATR3 C134 (UniProt Q7Z4Q2) | 0.84 |
| GYS1 C699 (UniProt P13807) | 0.0291 |
| GTF3C3 C239 (UniProt Q9Y5Q9) | 0.163 |
| HNRNPL C452 | 0.7 |
| HELLS C205 (UniProt Q9NRZ9) | 0.0365 |
| HMMR C361 (UniProt O75330) | -0.043 |
| HMGCL C323 (UniProt P35914) | 0.0354 |
| GXYLT1 C196 (UniProt Q4G148) | 0.108 |
| HEATR5B C810 (UniProt Q9P2D3) | -0.0743 |
| HECTD1 C1811 (UniProt Q9ULT8) | -0.28 |
| HEATR3 C446 (UniProt Q7Z4Q2) | 0.0552 |
| HNRNPD C126 | -0.559 |
| HECTD3 C592 (UniProt Q5T447) | 0.09 |

Same assay, conditions: 200 µM; treatment time: 4 h; cell line lysate: HEK293T

| Target | log2 mean competition ratio |
| --- | --- |
| HMCES C18 (UniProt Q96FZ2) | -0.0514 |
| HK1 C886 (UniProt P19367) | -0.11 |
| HLA-E C185 | 0.292 |
| HERC2 C349 (UniProt O95714) | 0.0111 |
| HOXB8 C215 | 0.0363 |
| GTPBP2 C36 (UniProt Q9BX10) | -0.134 |
| GSTM3 C39 (UniProt P21266) | -0.224 |
| HEATR3 C134 (UniProt Q7Z4Q2) | -0.0986 |
| GYS1 C699 (UniProt P13807) | -0.109 |
| GTF3C3 C239 (UniProt Q9Y5Q9) | -0.11 |
| HNRNPL C452 | 0.0178 |
| HELLS C205 (UniProt Q9NRZ9) | 0.0359 |
| HMMR C361 (UniProt O75330) | 0.237 |
| HMGCL C323 (UniProt P35914) | 0.11 |
| GXYLT1 C196 (UniProt Q4G148) | 0.408 |
| HEATR5B C810 (UniProt Q9P2D3) | 0.068 |
| HECTD1 C1811 (UniProt Q9ULT8) | -0.293 |
| HEATR3 C446 (UniProt Q7Z4Q2) | 0.29 |
| HNRNPD C126 | -0.147 |
| HECTD3 C592 (UniProt Q5T447) | 0.201 |
